# Experimental data: PubChem BioAssay AID588590 (National Center for Advancing Translational Sciences (NCATS), 2011)
# Sequences of proteins named here, by UniProt entry; tags and fusion partners are left off. A change or cut given only in a name is not applied to a line headed by its entry.
# UniProt Q9UNA4: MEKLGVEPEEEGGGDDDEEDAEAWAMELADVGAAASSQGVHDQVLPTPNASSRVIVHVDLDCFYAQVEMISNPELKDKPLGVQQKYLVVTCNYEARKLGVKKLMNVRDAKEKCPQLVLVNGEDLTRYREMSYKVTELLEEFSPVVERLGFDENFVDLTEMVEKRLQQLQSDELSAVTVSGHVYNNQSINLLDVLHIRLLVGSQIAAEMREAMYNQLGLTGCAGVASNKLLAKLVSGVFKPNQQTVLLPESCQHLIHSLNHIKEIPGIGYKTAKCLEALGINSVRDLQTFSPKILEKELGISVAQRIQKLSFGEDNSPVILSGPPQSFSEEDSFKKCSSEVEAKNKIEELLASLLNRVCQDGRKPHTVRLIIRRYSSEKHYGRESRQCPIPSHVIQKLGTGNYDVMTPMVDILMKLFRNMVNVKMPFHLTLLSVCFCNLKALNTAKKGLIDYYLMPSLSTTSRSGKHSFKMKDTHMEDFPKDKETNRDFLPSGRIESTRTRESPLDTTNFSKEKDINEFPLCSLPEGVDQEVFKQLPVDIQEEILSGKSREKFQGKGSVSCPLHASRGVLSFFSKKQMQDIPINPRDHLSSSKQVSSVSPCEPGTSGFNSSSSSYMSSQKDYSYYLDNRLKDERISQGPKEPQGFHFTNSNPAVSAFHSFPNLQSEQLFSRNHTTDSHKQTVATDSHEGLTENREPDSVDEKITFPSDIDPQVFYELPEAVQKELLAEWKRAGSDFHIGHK
# Several values for one entry are separate records, joined by “and”; a condition that tells them apart may be missing. Equal entries are not always repeated. Out of some 390,000 compounds screened, about 4,000 (1%) were called active. Inconclusive results, whose numbers are uncertain, are shown with a selection of clear calls. Calls come from the whole dose curve; as a rule, active = well fitted inhibition curve with a large enough effect; inconclusive = small, poorly fitted or top-dose-only effect, or another doubt; inactive = no such curve, though single readings can be large or run the other way. Potencies of inconclusive entries are doubtful fits and often do not repeat.
# Biological target: DNA polymerase iota (Homo sapiens) (UniProt Q9UNA4)
# Assay: qHTS for Inhibitors of Polymerase Iota
# Conditions: Pol iota fluorescent replication assay, 10 min; series mostly up to 115 µM; activity, negative = inhibition: at the top concentration
# In short: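 Fluorescent replication assay read twice, at 0 min and 10 min after adding 50 nM (final) substrate. Enzyme (10 nM) and compounds were first incubated 15 min at room temperature; enzyme-free buffer wells were negative controls.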
# Potency is the fitted concentration of half-maximal effect.
SMILES,Potency,"activity, negative = inhibition"
Cc1csc(Nc2ccc(C(=O)O)cc2)n1,"inconclusive: 50.1 µM [inhibitor, partial curve, poor fit]",
Cc1ccccc1C(=O)NCCSc1ccccc1,,inactive: 12.5%
O=C(/C=C/c1ccccc1)c1ccc2c(c1)OCCCCO2,"inconclusive: 14.1 µM [inhibitor, full curve, poor fit]",
Cc1ccc(-n2nc(C)c3c(C(=O)O)cc(C)nc32)cc1,"inconclusive: 89.1 µM [inhibitor, single point]",
O=C(Cn1cncn1)NCc1ccccc1Br,,inactive: 2.78%
CCCCN(C)C(=O)c1cc2cc3ccc(OC)cc3nc2s1,,inactive: -7.09%
O=C1CCCN1CCCNc1ncnc2c1[nH]c1ccc(Cl)cc12,"inconclusive: 0.398 µM [inhibitor, partial curve, poor fit]",
CO[C@@H]1[C@@H](OC2OC(C)C(OC3CC(C)(O)C(OC(=O)CC(C)C)C(C)O3)C(N(C)C)C2O)[C@@H](CC=O)C[C@@H](C)C(=O)/C=C\C2O[C@H]2C[C@@H](C)OC(=O)C[C@H]1OC(C)=O (stereo not given in full),,inactive: 0.574%
COc1ccc(CCNC(=O)C2CC3Cn4c(nc5cc(C)c(C)cc54)C3N2C)cc1 (stereo not given),"inconclusive: 89.1 µM [inhibitor, partial curve, poor fit]",
Cc1ccc(C2C(C#N)=C(N)N(c3cccnc3)C3=C2C(=O)CCC3)s1 (stereo not given),"inconclusive: 25.1 µM [inhibitor, full curve, poor fit]",
CCN(CC)c1cc(C)c2cc(NC(=O)/C=C/c3ccccc3OC(C)C)ccc2n1,,inactive: 9.79%
O=C(CNc1ccc2ccccc2c1)N/N=C/c1ccc(C(=O)O)cc1,"inconclusive: 28.2 µM [inhibitor, full curve]",
O=C(CCn1c2c(c3ccccc31)CCCC2)NNC(=O)c1ccccc1C(=O)O,"inconclusive: 89.1 µM [inhibitor, partial curve, poor fit]",
CCOC(=O)c1noc2nc(C)n(CC(=O)Nc3ccc(OC)c(Cl)c3)c(=O)c12,,inactive: 9.99%
COC(CN(C)C(=O)c1ccc2c(c1)NC(=O)c1ccccc1S2)OC,"inconclusive: 28.2 µM [inhibitor, single point]",
Cc1cccc(/N=C/c2nc(-c3ccccc3Br)oc2O)n1,"inconclusive: 50.1 µM [inhibitor, partial curve, poor fit]",
COc1cc(OC)c2ccc(=O)oc2c1C(CC(=O)N1CCCC1)c1ccc2c(c1)OCO2 (stereo not given),active: 70.8 µM,
CCCCc1nc(S(=O)(=O)c2ccc(Cl)cc2)c(N2CCOCC2)o1,"inconclusive: 25.1 µM [inhibitor, single point]",
O=C(N/N=C/c1cc([N+](=O)[O-])ccc1O)c1ccc(COc2ccc3c(c2)CCC3)o1,,inactive: 37.6%
COc1cc(OC)cc(C(=O)NCc2n[nH]c(=S)n2-c2ccccc2)c1,"inconclusive: 79.4 µM [inhibitor, single point]",
Oc1cc2ccccc2cc1-c1n[nH]c(=S)o1,"inconclusive: 28.2 µM [inhibitor, partial curve, poor fit]",
CC1=Nc2ccc(C)cc2/C1=C/c1c(N)n2oc(C)cc2nc1=O,"inactive and inconclusive: 10 µM [inhibitor, partial curve]",

# Pulled one by one from the list above (2):
SMILES,Potency,"activity, negative = inhibition"
O=C(Cn1cncn1)NCc1ccccc1Br,,inactive: 2.78%
CCOC(=O)c1noc2nc(C)n(CC(=O)Nc3ccc(OC)c(Cl)c3)c(=O)c12,,inactive: 9.99%

# Following part

SMILES,Potency,"activity, negative = inhibition"
O=C1c2ccccc2C(=O)c2c(Nc3ccc(CCO)cc3)ccc(O)c21,"inconclusive: 100 µM [inhibitor, single point]",
CC(=O)C(C)Oc1ccc2c3c(c(=O)oc2c1)CCCC3 (stereo not given),"inconclusive: 39.8 µM [inhibitor, single point]",
Cc1cn2c(=O)cc(COc3ccccc3NC(=O)c3ccc(Cl)cc3)nc2s1,,inactive: 7.67%
Cc1ccc(S(=O)(=O)N(CC(=O)Nc2ccc3c(c2)OCO3)c2ccc(C)c(Cl)c2)cc1,,inactive: 0.42%
O=C(NC1CC1)c1cc(-c2ccco2)nc2ccccc12,"inconclusive: 7.94 µM [inhibitor, full curve, poor fit]",
O=C(O)c1cccc(N/N=C/c2ccc(OC(F)(F)F)cc2)c1,"inconclusive: 28.2 µM [inhibitor, partial curve, poor fit]",
Cc1ccc(N=Nc2c(N)n(-c3ccccc3)[nH]c2=O)cc1,"inconclusive: 2.51 µM [inhibitor, partial curve, poor fit]",
C=C(CCC(=O)c1ccccc1)C(=O)c1ccccc1,"inconclusive: 20 µM [inhibitor, full curve, poor fit]",
CN(C)c1oc(-c2ccccc2[N+](=O)[O-])nc1C#N,"inconclusive: 10 µM [inhibitor, partial curve, poor fit]",
O=C(Nc1ccc(C(=O)N2CCN(c3ccccn3)CC2)cc1)c1ccc(Br)o1,"inconclusive: 39.8 µM [inhibitor, partial curve, poor fit]",
CCN1/C(=C/c2ccc3cc(C)ccc3[n+]2CC)Sc2cc(C)ccc21,"inconclusive: 15.8 µM [inhibitor, full curve, poor fit]",
COc1ccc(C2C(C(C)=O)=C(O)C(=O)N2c2nc3ccccc3s2)cc1OC (stereo not given),,inactive: -28.5%
O=C1SCC(c2ccc(Cl)cc2Cl)=NN1Cc1nnc(-c2ccccc2)o1,,inactive: 12.5%
O=C1c2ccccc2C(=O)c2c(O)c(O)cc(O)c21,active: 79.4 µM,
Cc1cc(C)cc(-n2ccn(CC(=O)Nc3ccccc3F)c(=O)c2=O)c1,"inconclusive: 28.2 µM [inhibitor, partial curve, poor fit]",
CCOc1ccc(NC(=O)Cn2c(=O)n(CCCC(=O)NC3CCN(Cc4ccccc4)CC3)c(=O)c3ccccc32)cc1,,inactive: 6%
CCC(NS(=O)(=O)c1ccc2c(c1)NC(=O)C(C)C(=O)N2)c1cccs1 (stereo not given),"inconclusive: 15.8 µM [inhibitor, single point]",
COc1ccc2[nH]c3c(=O)n(CCCCC(=O)N4CCC(C(N)=O)CC4)c(=S)[nH]c3c2c1,"inconclusive: 79.4 µM [inhibitor, partial curve, poor fit]",
CC(C)c1ccc(Nc2nc3c(S(=O)(=O)c4ccc(Br)cc4)nnn3c3ccsc23)cc1,"inconclusive: 31.6 µM [inhibitor, single point]",
O=C(Nc1cccnc1)c1sc(Nc2ccccc2F)nc1-c1ccccc1,"inconclusive: 20 µM [inhibitor, single point]",
O=c1oc2cc(O)ccc2cc1-c1ccc(F)cc1,"inconclusive: 25.1 µM [inhibitor, partial curve, poor fit]",
Cn1cc(/C=N/NC(=O)c2cccc([N+](=O)[O-])c2)c2ccccc21,"inconclusive: 39.8 µM [inhibitor, partial curve, poor fit]",

SMILES,Potency,"activity, negative = inhibition"
COC(=O)c1ccccc1NC(=O)c1cc2c(-c3ccc(OC)c(OC)c3)nn(C)c2s1,"inconclusive: 79.4 µM [inhibitor, single point]",
O=C1NC(=S)SC1=C1CCCC1,"inconclusive: 6.31 µM [inhibitor, full curve, poor fit]",
O=C(N/N=C/c1cccs1)c1n[nH]c2c1CCC2,,inactive: 13.7%
CCC(=O)Nc1sc2c(c1C(=O)Nc1cccc(C)c1)CCCC2,"inconclusive: 79.4 µM [inhibitor, single point]",
N/C(=N\OC(=O)Nc1ccccc1)c1ncc([N+](=O)[O-])s1,"inconclusive: 17.8 µM [inhibitor, full curve]",
O=C(Nc1c(Cl)cccc1Cl)c1cc(-c2cccc(O)c2)on1,,inactive: -16.8%
O=C1C(=Cc2ccco2)CCC1=Cc1ccco1,"inconclusive: 0.708 µM [inhibitor, full curve, poor fit]",
NC(=O)c1c(NC(=O)CSc2nnc(-c3ccccc3)n2CC2CCCO2)sc2c1CCC2 (stereo not given),"inconclusive: 56.2 µM [inhibitor, partial curve, poor fit]",
CCCCNc1nc2c(c(=O)n(Cc3ccc(Cl)c(Cl)c3)c(=O)n2C)n1C,,inactive: 19.4%
Nc1nc(Nc2ccccc2F)nc(NCc2ccccc2)c1[N+](=O)[O-],"inconclusive: 89.1 µM [inhibitor, single point]",
CC/C=C1/N=C2C(=O)N(C)C(=O)N=C2N(C)N1,,inactive: -19.4%
N=c1c2c(n(Cc3ccc(Cl)cc3)c3c1CCC3)CCC2,"inconclusive: 89.1 µM [inhibitor, single point]",
Cc1cc(Br)ccc1OCC(=O)NNC(=O)C(=O)Nc1ccccc1,"inconclusive: 25.1 µM [inhibitor, full curve]",
Cn1ncc(N=Cc2c(O)ccc3ccccc23)c1C(=O)Nc1cccc(Cl)c1,"inconclusive: 12.6 µM [inhibitor, partial curve, poor fit]",
COc1cccc(OC)c1/C(O)=C(\C#N)c1nc2ccccc2[nH]1,"inconclusive: 44.7 µM [inhibitor, partial curve, poor fit]",
COc1ccc(C(=O)COC(=O)CCN2C(=O)C3CC=CCC3C2=O)c(OC)c1 (stereo not given),active: 39.8 µM,
COc1ccc(C)cc1S(=O)(=O)N(C)CC(N)=O,"inconclusive: 89.1 µM [inhibitor, single point]",
Cc1ccc(S(=O)(=O)c2nc(S(C)(=O)=O)sc2N(C)C)cc1,"inconclusive: 0.794 µM [inhibitor, partial curve, poor fit]",
O=C(O)c1ccc2c(c1)C(=O)N(c1cccc(-c3nc4ccccc4s3)c1)C2=O,,inactive: 10.8%
CCCC1C2CN(C(C)=O)CC=C2C(C#N)=C(N)C1(C#N)C#N (stereo not given),"inconclusive: 14.1 µM [inhibitor, single point]",
Cc1ccc(CNC(=O)c2cccc(-n3cnc4cccnc43)c2)cc1,"inconclusive: 89.1 µM [inhibitor, single point]",

# Compounds listed so far that have a Cl atom (10):
SMILES,Potency,"activity, negative = inhibition"
O=C1CCCN1CCCNc1ncnc2c1[nH]c1ccc(Cl)cc12,"inconclusive: 0.398 µM [inhibitor, partial curve, poor fit]",
CCOC(=O)c1noc2nc(C)n(CC(=O)Nc3ccc(OC)c(Cl)c3)c(=O)c12,,inactive: 9.99%
CCCCc1nc(S(=O)(=O)c2ccc(Cl)cc2)c(N2CCOCC2)o1,"inconclusive: 25.1 µM [inhibitor, single point]",
Cc1cn2c(=O)cc(COc3ccccc3NC(=O)c3ccc(Cl)cc3)nc2s1,,inactive: 7.67%
Cc1ccc(S(=O)(=O)N(CC(=O)Nc2ccc3c(c2)OCO3)c2ccc(C)c(Cl)c2)cc1,,inactive: 0.42%
O=C1SCC(c2ccc(Cl)cc2Cl)=NN1Cc1nnc(-c2ccccc2)o1,,inactive: 12.5%
O=C(Nc1c(Cl)cccc1Cl)c1cc(-c2cccc(O)c2)on1,,inactive: -16.8%
CCCCNc1nc2c(c(=O)n(Cc3ccc(Cl)c(Cl)c3)c(=O)n2C)n1C,,inactive: 19.4%
N=c1c2c(n(Cc3ccc(Cl)cc3)c3c1CCC3)CCC2,"inconclusive: 89.1 µM [inhibitor, single point]",
Cn1ncc(N=Cc2c(O)ccc3ccccc23)c1C(=O)Nc1cccc(Cl)c1,"inconclusive: 12.6 µM [inhibitor, partial curve, poor fit]",
